Like-named read-outs stand apart in the source and are kept apart here.
Test system: βII-spectrin fragments (50 kD, 60 kD)
Settings: depleted serum

**Q.** `CC(C)c1c(C(=O)Nc2ccccc2)c(-c2ccccc2)c(-c2ccc(F)cc2)n1CC[C@@H](O)C[C@@H](O)CC(=O)O` [atorvastatin] was tested. Which “βII-spectrin fragmentation at 50 kD compared to HC” value (atorvastatin 40 mg (A-40) patients, n=4) did it give?
**A.** decreased

**Q.** What about the “βII-spectrin fragmentation at 50 kD compared to HC” value (atorvastatin 80 mg (A-80) patients, n=8) of the same compound?
**A.** increased

**Q.** And the “βII-spectrin 60 kD band compared to HC” value (atorvastatin 80 mg (A-80) patients, p<0.01)?
**A.** significantly increased

Reference: US12590974B2, “Methods and compositions for cardiovascular disease detection and management” (Ohio State Innovation Foundation, priority 2019, dated 2026)
